Among the data in article PMC6838200 are binding values, retold here.

Results are given in words; binding and its absence hold for the method and conditions named. Some entries that bind do so weakly or less than the wild type.

Assay [1] deals with T1, Spa2-LC (Spa2 disordered region 1151-1305aa and ordered region 1306-1466aa) (S. cerevisiae) (UniProt P23201).
T1 sequence: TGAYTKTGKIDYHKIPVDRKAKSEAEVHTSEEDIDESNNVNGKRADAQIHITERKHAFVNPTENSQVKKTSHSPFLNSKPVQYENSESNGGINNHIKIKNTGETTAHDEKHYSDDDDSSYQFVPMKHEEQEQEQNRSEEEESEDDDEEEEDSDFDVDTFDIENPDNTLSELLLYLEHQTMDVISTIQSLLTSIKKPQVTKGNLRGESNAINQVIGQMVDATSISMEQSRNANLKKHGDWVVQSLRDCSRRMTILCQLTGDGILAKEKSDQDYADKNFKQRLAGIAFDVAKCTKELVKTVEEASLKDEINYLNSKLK
The assay is described as follows: native gel or EMSA; 4 µg Spa2-LC incubated with 2 µg Aip5 variant on ice for 30 min; native PAGE (4% stacking, 9% separating) at 4 °C; both purified. A general note: A gel shift assay detects complexes by their altered migration in electrophoresis.

For assay [2], the target named is Aip5-N (Aip5 N-terminal region, 1-1131aa) (S. cerevisiae) (UniProt P43597). Kind of assay: negative-stain TEM; 1 µM purified protein on carbon-coated copper grids, uranyl acetate stain, non-crowding conditions; both purified.

B1: Aip5-N (Aip5 N-terminal region, 1-1131aa) (domain or fragment, UniProt P43597 1-1131)
chain: MVESLTVENQEHNVQPPSVTSAGDSYSTLATDLPLPSTNDIIESRDQLTESDLDEAINATENFAQELSSQRKSSKLKGHKKKNQGQIKANRDRDTIVKLSSSVGETEEASTRDAISHDLERKDDVIEIATDTINDATESPTQIPIDVNVVIKETSTNNVAEGTENVPPIKESTGIEVGNSPITRRKKNKKKKTTNRRGRNSSNPADTTDLSKQSTLDSILVGIEEYLQEDGSKNEDIKVNIVQDEPVNVEKMDIRTRNESSDKTFDIDVPNKDNVDETSSKSENNINEEKAEHTLPREENEILNVNEGNAASFKHQLEPHGLEAGDENGQASTKDVESESLTKNGFNFKENESKHLKAGEKQQTESDRDGISPSVLAKNQKETEIGKEDHVFEQKDKEDEKCRKELSVNHENNMSHNFNAAGSDSIIPPETERETYDDETMGPTKRISDNEKNLQHGTNDISVEVEKEEEEEEEEEENSTFSKVKKENVTGEQEAVRNNEVSGTEEESTSKGEEIMGGDEKQSEAGEKSSIIEIEGSANSAKISKDNLVLEDEAEAPTQENKPTEVVGEIDIPDAPRDDVEIVEAVEKNIIPEDLEVAKEDQEGEQVKLDEPVKAMKDDKIAMRGAESISEDMKKKQEGTAELSNEKAKKEVDETARESAEGVEVEKSKTPESPKVVKRCTSGRPEDLQINERDPEVLKEDVRVPDEDVKPEIATTIENSEEEDPKSQRVQISTEQAETTQKDMGDVGSTTSFKEEEKPKRFEITQEGDKITGKDTNHEHGEATEAASENSKASDVGTAEKYIEPSSESVKKDTEEDAEVENSEKTEFIKVKAELENLDAPKEAEVTAELNKENEDVEVDTEEDAEVENSEKTEFIKVKAELGNLDAPKEAEVTAELNKENEDVEVAATSKEDIETKCSEPAETPIEDGTCTEAEVSKKDAEAVTKEDENMENSKIAEALKDVTGDQEIDDINISDEFQRTVELPELEKQDIKDNKGEDKELEVEETEKETSLPDLVVEENITEEKNEIKQEEEEVSQLDFNETESISKEAPNNDENGFEDQSTRENPKKASADDIFKDILDETNEFLEQLKIVDDSELNALLQSLDAKDSTTQTTEQSKKNNDKPQDVIT
Turning to B1, the binding entry in assay [1] and in assay [2] was “binds” each time.
